# Results as given in US20130196933A1.
# Amino acid sequences for entries named in this document (tags omitted).
# UniProt P06493: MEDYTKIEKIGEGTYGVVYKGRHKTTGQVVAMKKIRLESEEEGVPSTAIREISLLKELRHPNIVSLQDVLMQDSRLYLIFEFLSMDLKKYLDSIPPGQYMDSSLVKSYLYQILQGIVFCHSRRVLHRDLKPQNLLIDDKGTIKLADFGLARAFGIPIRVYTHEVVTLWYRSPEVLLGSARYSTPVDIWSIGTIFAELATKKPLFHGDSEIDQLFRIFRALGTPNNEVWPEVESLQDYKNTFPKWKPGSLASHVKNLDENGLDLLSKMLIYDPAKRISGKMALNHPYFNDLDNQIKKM
# Results are given in words; binding and its absence hold for the method and conditions named. Binding seen in cells or lysates may run through a third protein. Some results given as binding are weak or reduced against the parent protein; the word gives no strength. For some assays here: Sequences can lack the tags named with a protein.
# T1: endogenous mouse FoxM1B protein (mouse) (UniProt O08696)
# T1 sequence (looked up): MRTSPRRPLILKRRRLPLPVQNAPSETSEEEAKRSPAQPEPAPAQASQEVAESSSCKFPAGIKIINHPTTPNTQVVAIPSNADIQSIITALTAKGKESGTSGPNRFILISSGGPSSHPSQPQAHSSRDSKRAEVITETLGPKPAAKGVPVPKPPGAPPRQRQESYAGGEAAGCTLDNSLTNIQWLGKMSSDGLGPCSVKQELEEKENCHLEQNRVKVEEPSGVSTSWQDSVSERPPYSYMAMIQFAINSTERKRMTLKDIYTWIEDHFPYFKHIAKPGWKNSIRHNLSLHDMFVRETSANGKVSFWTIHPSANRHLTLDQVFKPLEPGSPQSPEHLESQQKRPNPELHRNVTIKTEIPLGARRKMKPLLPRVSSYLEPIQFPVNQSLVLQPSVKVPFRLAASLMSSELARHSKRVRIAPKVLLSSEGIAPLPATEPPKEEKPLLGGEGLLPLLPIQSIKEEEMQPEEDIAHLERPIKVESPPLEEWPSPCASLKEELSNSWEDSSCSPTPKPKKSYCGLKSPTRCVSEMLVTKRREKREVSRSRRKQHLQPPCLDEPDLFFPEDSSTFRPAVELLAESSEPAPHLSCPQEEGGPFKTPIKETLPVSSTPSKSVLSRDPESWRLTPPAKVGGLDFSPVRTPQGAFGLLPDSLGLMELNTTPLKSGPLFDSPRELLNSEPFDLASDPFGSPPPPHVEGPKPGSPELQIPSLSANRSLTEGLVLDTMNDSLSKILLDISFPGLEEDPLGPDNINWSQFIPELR
# T2: GFP-FoxM1B fusion protein, wild type (CMV GFP-FoxM1B; GFP-T7-FoxM1B WT; GFP-FoxM1B 1-748 full-length) (human) (UniProt Q08050)
# T2 sequence: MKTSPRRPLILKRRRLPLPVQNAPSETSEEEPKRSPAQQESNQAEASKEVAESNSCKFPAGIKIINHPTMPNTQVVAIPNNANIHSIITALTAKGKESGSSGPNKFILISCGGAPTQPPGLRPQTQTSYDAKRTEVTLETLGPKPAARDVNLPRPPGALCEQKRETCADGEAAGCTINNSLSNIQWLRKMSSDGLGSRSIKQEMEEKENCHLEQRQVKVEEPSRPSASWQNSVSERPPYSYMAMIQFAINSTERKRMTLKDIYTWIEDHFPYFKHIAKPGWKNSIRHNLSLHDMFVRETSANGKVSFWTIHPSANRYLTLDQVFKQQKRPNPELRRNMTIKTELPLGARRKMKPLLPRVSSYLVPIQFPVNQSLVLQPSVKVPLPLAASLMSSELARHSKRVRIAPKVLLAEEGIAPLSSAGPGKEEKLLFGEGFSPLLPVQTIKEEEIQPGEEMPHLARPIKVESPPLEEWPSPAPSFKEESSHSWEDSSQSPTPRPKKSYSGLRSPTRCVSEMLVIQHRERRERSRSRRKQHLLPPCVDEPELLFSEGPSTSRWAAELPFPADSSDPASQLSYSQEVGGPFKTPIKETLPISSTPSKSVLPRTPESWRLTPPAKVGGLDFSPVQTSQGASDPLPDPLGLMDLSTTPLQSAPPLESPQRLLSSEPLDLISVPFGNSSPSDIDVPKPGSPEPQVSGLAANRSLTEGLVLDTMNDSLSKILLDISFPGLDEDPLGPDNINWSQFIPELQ
# Columns and labels:
# [1] = molecular target: T1, endogenous mouse FoxM1B protein (mouse); assay: Co-IP with p19ARF antibody AB80, Western blot with mouse FoxM1B antibody, mouse liver and MEF extracts
# [2] = molecular target: T2, GFP-FoxM1B fusion protein, wild type (CMV GFP-FoxM1B; GFP-T7-FoxM1B WT; GFP-FoxM1B 1-748 full-length) (human); assay: Co-IP of FIG. 15D, transfected U2OS extracts
# [3] = molecular target: T2, GFP-FoxM1B fusion protein, wild type (CMV GFP-FoxM1B; GFP-T7-FoxM1B WT; GFP-FoxM1B 1-748 full-length) (human); assay: Co-IP with HA antibody, Western blot with GFP antibody, transfected U2OS extracts
# Cdk1 protein (human) [4] = molecular target: Cdk1 protein (human) (UniProt P06493); assay: Co-IP from transfected U2OS extracts with Cdk1 antibody, Western blot with T7 tag antibody
# Cdk1 protein (human) [5] = molecular target: Cdk1 protein (human) (UniProt P06493); assay: Co-IP with Cdk1 polyclonal antibody, Western blot with T7 epitope antibody
Binder,binding (Cdk1 protein (human) [4]),further results
endogenous mouse p19^ARF tumor suppressor protein (protein) MGRRFLVTVRIQRAGRPLQERVFLVKFVRSRRPRTASCALAFVNMLLRLERILRRGPHRNPGPGDDDGQRSRSSSSAQLRCRFELRGPHYLLPPGDRRSAGRLPGHAGGAARVRGSAGCARCLGSPAARLGPRAGTSRHRAIFAFRWVLFVFRWVVFVYRWERRPDRRA,,binding [1]: binds
"HA-p19^ARF WT protein (protein, not shown: small tags and cut ends) MGRRFLVTVRIQRAGRPLQERVFLVKFVRSRRPRTASCALAFVNMLLRLERILRRGPHRNPGPGDDDGQRSRSSSSAQLRCRFELRGPHYLLPPGDRRSAGRLPGHAGGAARVRGSAGCARCLGSPAARLGPRAGTSRHRAIFAFRWVLFVFRWVVFVYRWERRPDRRA",,binding [2]: binds; binding [3]: binds
"T7-FoxM1B T596A mutant protein (protein, not shown: small tags and cut ends) MKTSPRRPLILKRRRLPLPVQNAPSETSEEEPKRSPAQQESNQAEASKEVAESNSCKFPAGIKIINHPTMPNTQVVAIPNNANIHSIITALTAKGKESGSSGPNKFILISCGGAPTQPPGLRPQTQTSYDAKRTEVTLETLGPKPAARDVNLPRPPGALCEQKRETCADGEAAGCTINNSLSNIQWLRKMSSDGLGSRSIKQEMEEKENCHLEQRQVKVEEPSRPSASWQNSVSERPPYSYMAMIQFAINSTERKRMTLKDIYTWIEDHFPYFKHIAKPGWKNSIRHNLSLHDMFVRETSANGKVSFWTIHPSANRYLTLDQVFKQQKRPNPELRRNMTIKTELPLGARRKMKPLLPRVSSYLVPIQFPVNQSLVLQPSVKVPLPLAASLMSSELARHSKRVRIAPKVLLAEEGIAPLSSAGPGKEEKLLFGEGFSPLLPVQTIKEEEIQPGEEMPHLARPIKVESPPLEEWPSPAPSFKEESSHSWEDSSQSPTPRPKKSYSGLRSPTRCVSEMLVIQHRERRERSRSRRKQHLLPPCVDEPELLFSEGPSTSRWAAELPFPADSSDPASQLSYSQEVGGPFKTPIKETLPISSAPSKSVLPRTPESWRLTPPAKVGGLDFSPVQTSQGASDPLPDPLGLMDLSTTPLQSAPPLESPQRLLSSEPLDLISVPFGNSSPSDIDVPKPGSPEPQVSGLAANRSLTEGLVLDTMNDSLSKILLDISFPGLDEDPLGPDNINWSQFIPELQ",binds,
"T7-FoxM1B T585A mutant protein (protein, not shown: small tags and cut ends) MKTSPRRPLILKRRRLPLPVQNAPSETSEEEPKRSPAQQESNQAEASKEVAESNSCKFPAGIKIINHPTMPNTQVVAIPNNANIHSIITALTAKGKESGSSGPNKFILISCGGAPTQPPGLRPQTQTSYDAKRTEVTLETLGPKPAARDVNLPRPPGALCEQKRETCADGEAAGCTINNSLSNIQWLRKMSSDGLGSRSIKQEMEEKENCHLEQRQVKVEEPSRPSASWQNSVSERPPYSYMAMIQFAINSTERKRMTLKDIYTWIEDHFPYFKHIAKPGWKNSIRHNLSLHDMFVRETSANGKVSFWTIHPSANRYLTLDQVFKQQKRPNPELRRNMTIKTELPLGARRKMKPLLPRVSSYLVPIQFPVNQSLVLQPSVKVPLPLAASLMSSELARHSKRVRIAPKVLLAEEGIAPLSSAGPGKEEKLLFGEGFSPLLPVQTIKEEEIQPGEEMPHLARPIKVESPPLEEWPSPAPSFKEESSHSWEDSSQSPTPRPKKSYSGLRSPTRCVSEMLVIQHRERRERSRSRRKQHLLPPCVDEPELLFSEGPSTSRWAAELPFPADSSDPASQLSYSQEVGGPFKAPIKETLPISSTPSKSVLPRTPESWRLTPPAKVGGLDFSPVQTSQGASDPLPDPLGLMDLSTTPLQSAPPLESPQRLLSSEPLDLISVPFGNSSPSDIDVPKPGSPEPQVSGLAANRSLTEGLVLDTMNDSLSKILLDISFPGLDEDPLGPDNINWSQFIPELQ",binds,
"GFP-FoxM1B fusion protein, wild type (CMV GFP-FoxM1B; GFP-T7-FoxM1B WT; GFP-FoxM1B 1-748 full-length) (protein, not shown: large carriers; small tags and cut ends) MKTSPRRPLILKRRRLPLPVQNAPSETSEEEPKRSPAQQESNQAEASKEVAESNSCKFPAGIKIINHPTMPNTQVVAIPNNANIHSIITALTAKGKESGSSGPNKFILISCGGAPTQPPGLRPQTQTSYDAKRTEVTLETLGPKPAARDVNLPRPPGALCEQKRETCADGEAAGCTINNSLSNIQWLRKMSSDGLGSRSIKQEMEEKENCHLEQRQVKVEEPSRPSASWQNSVSERPPYSYMAMIQFAINSTERKRMTLKDIYTWIEDHFPYFKHIAKPGWKNSIRHNLSLHDMFVRETSANGKVSFWTIHPSANRYLTLDQVFKQQKRPNPELRRNMTIKTELPLGARRKMKPLLPRVSSYLVPIQFPVNQSLVLQPSVKVPLPLAASLMSSELARHSKRVRIAPKVLLAEEGIAPLSSAGPGKEEKLLFGEGFSPLLPVQTIKEEEIQPGEEMPHLARPIKVESPPLEEWPSPAPSFKEESSHSWEDSSQSPTPRPKKSYSGLRSPTRCVSEMLVIQHRERRERSRSRRKQHLLPPCVDEPELLFSEGPSTSRWAAELPFPADSSDPASQLSYSQEVGGPFKTPIKETLPISSTPSKSVLPRTPESWRLTPPAKVGGLDFSPVQTSQGASDPLPDPLGLMDLSTTPLQSAPPLESPQRLLSSEPLDLISVPFGNSSPSDIDVPKPGSPEPQVSGLAANRSLTEGLVLDTMNDSLSKILLDISFPGLDEDPLGPDNINWSQFIPELQ",,binding (Cdk1 protein (human) [5]): binds

# Now from value to binder, other results behind:
binding (Cdk1 protein (human) [4]),Binder,further results
binds,"T7-FoxM1B WT protein (CMV T7-FoxM1B; CMV WT FoxM1B 1-748) (protein, not shown: small tags and cut ends) MKTSPRRPLILKRRRLPLPVQNAPSETSEEEPKRSPAQQESNQAEASKEVAESNSCKFPAGIKIINHPTMPNTQVVAIPNNANIHSIITALTAKGKESGSSGPNKFILISCGGAPTQPPGLRPQTQTSYDAKRTEVTLETLGPKPAARDVNLPRPPGALCEQKRETCADGEAAGCTINNSLSNIQWLRKMSSDGLGSRSIKQEMEEKENCHLEQRQVKVEEPSRPSASWQNSVSERPPYSYMAMIQFAINSTERKRMTLKDIYTWIEDHFPYFKHIAKPGWKNSIRHNLSLHDMFVRETSANGKVSFWTIHPSANRYLTLDQVFKQQKRPNPELRRNMTIKTELPLGARRKMKPLLPRVSSYLVPIQFPVNQSLVLQPSVKVPLPLAASLMSSELARHSKRVRIAPKVLLAEEGIAPLSSAGPGKEEKLLFGEGFSPLLPVQTIKEEEIQPGEEMPHLARPIKVESPPLEEWPSPAPSFKEESSHSWEDSSQSPTPRPKKSYSGLRSPTRCVSEMLVIQHRERRERSRSRRKQHLLPPCVDEPELLFSEGPSTSRWAAELPFPADSSDPASQLSYSQEVGGPFKTPIKETLPISSTPSKSVLPRTPESWRLTPPAKVGGLDFSPVQTSQGASDPLPDPLGLMDLSTTPLQSAPPLESPQRLLSSEPLDLISVPFGNSSPSDIDVPKPGSPEPQVSGLAANRSLTEGLVLDTMNDSLSKILLDISFPGLDEDPLGPDNINWSQFIPELQ",
binds,"T7-FoxM1B S657A mutant protein (protein, not shown: small tags and cut ends) MKTSPRRPLILKRRRLPLPVQNAPSETSEEEPKRSPAQQESNQAEASKEVAESNSCKFPAGIKIINHPTMPNTQVVAIPNNANIHSIITALTAKGKESGSSGPNKFILISCGGAPTQPPGLRPQTQTSYDAKRTEVTLETLGPKPAARDVNLPRPPGALCEQKRETCADGEAAGCTINNSLSNIQWLRKMSSDGLGSRSIKQEMEEKENCHLEQRQVKVEEPSRPSASWQNSVSERPPYSYMAMIQFAINSTERKRMTLKDIYTWIEDHFPYFKHIAKPGWKNSIRHNLSLHDMFVRETSANGKVSFWTIHPSANRYLTLDQVFKQQKRPNPELRRNMTIKTELPLGARRKMKPLLPRVSSYLVPIQFPVNQSLVLQPSVKVPLPLAASLMSSELARHSKRVRIAPKVLLAEEGIAPLSSAGPGKEEKLLFGEGFSPLLPVQTIKEEEIQPGEEMPHLARPIKVESPPLEEWPSPAPSFKEESSHSWEDSSQSPTPRPKKSYSGLRSPTRCVSEMLVIQHRERRERSRSRRKQHLLPPCVDEPELLFSEGPSTSRWAAELPFPADSSDPASQLSYSQEVGGPFKTPIKETLPISSTPSKSVLPRTPESWRLTPPAKVGGLDFSPVQTSQGASDPLPDPLGLMDLSTTPLQSAPPLEAPQRLLSSEPLDLISVPFGNSSPSDIDVPKPGSPEPQVSGLAANRSLTEGLVLDTMNDSLSKILLDISFPGLDEDPLGPDNINWSQFIPELQ",
